# Source: the supplement of paper PMC8728848
# Some of the results follow.
# B1: GroEL (Clostridium difficile), Q18CT5 (protein)
# chain: MAKEIKFSEETRRALEAGVNKLADTVKVTLGPKGRNVILDKKFGSPLITNDGVTIAKEIELEDRFENMGAQLVKEVATKTNDVAGDGTTTATVLAQAIIREGLKNVTAGANPILLRKGIQKAVTVAVEELKNQSRIVETQEAISQVASISAGDEEVGKLIAEAMEIVGKDGVITVEESQTMNTELDAVEGMQFDRGFVSAYMVTDVDKMEAVLNDPYILITDKKISNIQELLPVLEQIVQQGKKLLIIAEDVEGEALSTLVVNKLRGTFDVVAVKAPGFGDRRKEMLQDIAILTGAQVISEELGYDLKEADLSMLGRASSVKVTKESTTIVDGSGDKKAIEDRVTQIKHQVEQTTSDFDREKLMERLAKLAGGVAVVKVGAATEVELKERKLRIEDALNATRAAVEEGIVAGGGTAFVSVIPAIGTLIESLEGEVKLGAQIVKKALEEPLRQIAINAGLEGAVIVQNVVNSEAETGFDALNEKYVNMIEAGIVDPTKVSRSALQNAASIASTFLTTEAAVADLPEKEDAGMPGMGGGMPGMM
# Legend:
# Assay in all cases: glycan array binding signal (z-score within array); higher = stronger binding
# Details in all cases: glycan notation: IUPAC condensed, linker removed
# [1] = target: GlcNAc(b1-2)Man(a1-3)[GlcNAc(b1-2)Man(a1-6)]Man(b1-4)GlcNAc(b1-4)GlcNAc
# Method in brief: (§1)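 Glycan array data came from 3228 arrays in the Consortium for Functional Glycomics database, and only arrays with an available protein sequence were kept. Glycan names were put into IUPAC-condensed notation, and columns mapping to the same glycan were averaged. The binding signal is a within-array Z-score, averaged across arrays of one protein sequence run at different concentrations or buffers and across linkers. A negative Z-score can be read as non-binding.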
# [2] = target: GlcNAc(b1-2)Man(a1-3)[GlcNAc(b1-2)Man(a1-6)]Man(b1-4)GlcNAc(b1-4)[Fuc(a1-6)]GlcNAc
# Method in brief: as §1
# [3] = target: GlcNAc(b1-2)Man(a1-3)[GlcNAc(b1-4)][GlcNAc(b1-2)Man(a1-6)]Man(b1-4)GlcNAc(b1-4)GlcNAc
# Method in brief: as §1
# [4] = target: GlcNAc(b1-2)Man(a1-3)[GlcNAc(b1-4)][GlcNAc(b1-2)Man(a1-6)]Man(b1-4)GlcNAc(b1-4)[Fuc(a1-6)]GlcNAc
# Method in brief: as §1
# [5] = target: GlcNAc(b1-2)[GlcNAc(b1-4)]Man(a1-3)[GlcNAc(b1-2)Man(a1-6)]Man(b1-4)GlcNAc(b1-4)GlcNAc
# Method in brief: as §1
# [6] = target: GlcNAc(b1-2)[GlcNAc(b1-4)]Man(a1-3)[GlcNAc(b1-4)][GlcNAc(b1-2)Man(a1-6)]Man(b1-4)GlcNAc(b1-4)GlcNAc
# Method in brief: as §1
# [7] = target: GlcNAc(b1-2)[GlcNAc(b1-4)]Man(a1-3)[GlcNAc(b1-4)][GlcNAc(b1-2)[GlcNAc(b1-6)]Man(a1-6)]Man(b1-4)GlcNAc(b1-4)GlcNAc
# Method in brief: as §1
# [8] = target: GlcNAc(b1-2)[GlcNAc(b1-4)]Man(a1-3)[GlcNAc(b1-4)][GlcNAc(b1-2)[GlcNAc(b1-6)]Man(a1-6)]Man(b1-4)GlcNAc(b1-4)[Fuc(a1-6)]GlcNAc
# Method in brief: as §1
# [9] = target: GlcNAc(b1-2)[GlcNAc(b1-6)]Man(a1-6)[GlcNAc(b1-2)Man(a1-3)]Man(b1-4)GlcNAc(b1-4)GlcNAc
# Method in brief: as §1
# [10] = target: GlcNAc(b1-2)[GlcNAc(b1-6)]Man(a1-6)[GlcNAc(b1-2)Man(a1-3)]Man(b1-4)GlcNAc(b1-4)[Fuc(a1-6)]GlcNAc
# Method in brief: as §1
# [11] = target: GlcNAc(b1-2)[GlcNAc(b1-6)]Man(a1-6)[GlcNAc(b1-4)][GlcNAc(b1-2)Man(a1-3)]Man(b1-4)GlcNAc(b1-4)GlcNAc
# Method in brief: as §1
# GlcNAc(b1-3)Fuc = target: GlcNAc(b1-3)Fuc
# Method in brief: as §1
# GlcNAc(b1-3)Gal = target: GlcNAc(b1-3)Gal
# Method in brief: as §1
# [12] = target: GlcNAc(b1-3)Gal(b1-3)GalNAc
# Method in brief: as §1
# GlcNAc(b1-3)Gal(b1-4)Glc = target: GlcNAc(b1-3)Gal(b1-4)Glc
# Method in brief: as §1
# [13] = target: GlcNAc(b1-3)Gal(b1-4)GlcNAc
# Method in brief: as §1
# [14] = target: GlcNAc(b1-3)Gal(b1-4)GlcNAc(b1-2)Man(a1-3)[GlcNAc(b1-3)Gal(b1-4)GlcNAc(b1-2)Man(a1-6)]Man(b1-4)GlcNAc(b1-4)GlcNAc
# Method in brief: as §1
# [15] = target: GlcNAc(b1-3)Gal(b1-4)GlcNAc(b1-2)Man(a1-3)[GlcNAc(b1-3)Gal(b1-4)GlcNAc(b1-2)Man(a1-6)]Man(b1-4)GlcNAc(b1-4)[Fuc(a1-6)]GlcNAc
# Method in brief: as §1
# [16] = target: GlcNAc(b1-3)Gal(b1-4)GlcNAc(b1-2)[GlcNAc(b1-3)Gal(b1-4)GlcNAc(b1-6)]Man(a1-6)[GlcNAc(b1-3)Gal(b1-4)GlcNAc(b1-2)Man(a1-3)]Man(b1-4)GlcNAc(b1-4)GlcNAc
# Method in brief: as §1
# [17] = target: GlcNAc(b1-3)Gal(b1-4)GlcNAc(b1-3)Gal(b1-4)GlcNAc
# Method in brief: as §1
# [18] = target: GlcNAc(b1-3)Gal(b1-4)GlcNAc(b1-3)Gal(b1-4)GlcNAc(b1-2)Man(a1-3)[GlcNAc(b1-3)Gal(b1-4)GlcNAc(b1-3)Gal(b1-4)GlcNAc(b1-2)Man(a1-6)]Man(b1-4)GlcNAc(b1-4)GlcNAc
# Method in brief: as §1
# [19] = target: GlcNAc(b1-3)Gal(b1-4)GlcNAc(b1-3)Gal(b1-4)GlcNAc(b1-2)Man(a1-3)[GlcNAc(b1-3)Gal(b1-4)GlcNAc(b1-3)Gal(b1-4)GlcNAc(b1-2)Man(a1-6)]Man(b1-4)GlcNAc(b1-4)[Fuc(a1-6)]GlcNAc
# Method in brief: as §1
# [20] = target: GlcNAc(b1-3)Gal(b1-4)GlcNAc(b1-3)Gal(b1-4)GlcNAc(b1-2)[GlcNAc(b1-3)Gal(b1-4)GlcNAc(b1-3)Gal(b1-4)GlcNAc(b1-6)]Man(a1-6)[GlcNAc(b1-3)Gal(b1-4)GlcNAc(b1-3)Gal(b1-4)GlcNAc(b1-2)Man(a1-3)]Man(b1-4)GlcNAc(b1-4)[Fuc(a1-6)]GlcNAc
# Method in brief: as §1
# [21] = target: GlcNAc(b1-3)Gal(b1-4)GlcNAc(b1-3)Gal(b1-4)GlcNAc(b1-3)Gal(b1-4)GlcNAc(b1-2)Man(a1-3)[GlcNAc(b1-3)Gal(b1-4)GlcNAc(b1-3)Gal(b1-4)GlcNAc(b1-3)Gal(b1-4)GlcNAc(b1-2)Man(a1-6)]Man(b1-4)GlcNAc(b1-4)GlcNAc
# Method in brief: as §1
# [22] = target: GlcNAc(b1-3)Gal(b1-4)GlcNAc(b1-3)Gal(b1-4)GlcNAc(b1-3)Gal(b1-4)GlcNAc(b1-2)Man(a1-3)[GlcNAc(b1-3)Gal(b1-4)GlcNAc(b1-3)Gal(b1-4)GlcNAc(b1-3)Gal(b1-4)GlcNAc(b1-2)Man(a1-6)]Man(b1-4)GlcNAc(b1-4)[Fuc(a1-6)]GlcNAc
# Method in brief: as §1
# [23] = target: GlcNAc(b1-3)Gal(b1-4)GlcNAc(b1-3)Gal(b1-4)GlcNAc(b1-3)Gal(b1-4)GlcNAc(b1-2)[GlcNAc(b1-3)Gal(b1-4)GlcNAc(b1-3)Gal(b1-4)GlcNAc(b1-3)Gal(b1-4)GlcNAc(b1-6)]Man(a1-6)[GlcNAc(b1-3)Gal(b1-4)GlcNAc(b1-3)Gal(b1-4)GlcNAc(b1-3)Gal(b1-4)GlcNAc(b1-2)Man(a1-3)]Man(b1-4)GlcNAc(b1-4)[Fuc(a1-6)]GlcNAc
# Method in brief: as §1
# [24] = target: GlcNAc(b1-3)Gal(b1-4)GlcNAc(b1-3)Gal(b1-4)GlcNAc(b1-3)Gal(b1-4)GlcNAc(b1-3)Gal(b1-4)GlcNAc(b1-2)Man(a1-3)[GlcNAc(b1-3)Gal(b1-4)GlcNAc(b1-3)Gal(b1-4)GlcNAc(b1-3)Gal(b1-4)GlcNAc(b1-3)Gal(b1-4)GlcNAc(b1-2)Man(a1-6)]Man(b1-4)GlcNAc(b1-4)GlcNAc
# Method in brief: as §1
# [25] = target: GlcNAc(b1-3)Gal(b1-4)GlcNAc(b1-3)Gal(b1-4)GlcNAc(b1-3)Gal(b1-4)GlcNAc(b1-3)Gal(b1-4)GlcNAc(b1-2)Man(a1-3)[GlcNAc(b1-3)Gal(b1-4)GlcNAc(b1-3)Gal(b1-4)GlcNAc(b1-3)Gal(b1-4)GlcNAc(b1-3)Gal(b1-4)GlcNAc(b1-2)Man(a1-6)]Man(b1-4)GlcNAc(b1-4)[Fuc(a1-6)]GlcNAc
# Method in brief: as §1
# [26] = target: GlcNAc(b1-3)Gal(b1-4)GlcNAc(b1-3)Gal(b1-4)GlcNAc(b1-3)Gal(b1-4)GlcNAc(b1-3)Gal(b1-4)GlcNAc(b1-2)[GlcNAc(b1-3)Gal(b1-4)GlcNAc(b1-3)Gal(b1-4)GlcNAc(b1-3)Gal(b1-4)GlcNAc(b1-3)Gal(b1-4)GlcNAc(b1-6)]Man(a1-6)[GlcNAc(b1-3)Gal(b1-4)GlcNAc(b1-3)Gal(b1-4)GlcNAc(b1-3)Gal(b1-4)GlcNAc(b1-3)Gal(b1-4)GlcNAc(b1-2)Man(a1-3)]Man(b1-4)GlcNAc(b1-4)[Fuc(a1-6)]GlcNAc
# Method in brief: as §1
# [27] = target: GlcNAc(b1-3)Gal(b1-4)GlcNAc(b1-3)Gal(b1-4)GlcNAc(b1-3)GalNAc
# Method in brief: as §1
binder,measurement,setting,value
B1,glycan array binding signal (z-score),[1],0.147
same,glycan array binding signal (z-score),[2],-0.761
same,glycan array binding signal (z-score),[3],1.32
same,glycan array binding signal (z-score),[4],-1.46
same,glycan array binding signal (z-score),[5],-0.09
same,glycan array binding signal (z-score),[6],-0.391
same,glycan array binding signal (z-score),[7],-0.867
same,glycan array binding signal (z-score),[8],-1.09
same,glycan array binding signal (z-score),[9],1.98
same,glycan array binding signal (z-score),[10],0.305
same,glycan array binding signal (z-score),[11],-0.402
same,glycan array binding signal (z-score),GlcNAc(b1-3)Fuc,-0.968
same,glycan array binding signal (z-score),GlcNAc(b1-3)Gal,0.995
same,glycan array binding signal (z-score),[12],-0.287
same,glycan array binding signal (z-score),GlcNAc(b1-3)Gal(b1-4)Glc,-1.1
same,glycan array binding signal (z-score),[13],1.04
same,glycan array binding signal (z-score),[14],-0.053
same,glycan array binding signal (z-score),[15],-0.033
same,glycan array binding signal (z-score),[16],-0.016
same,glycan array binding signal (z-score),[17],0.167
same,glycan array binding signal (z-score),[18],2.2
same,glycan array binding signal (z-score),[19],0.364
same,glycan array binding signal (z-score),[20],0.513
same,glycan array binding signal (z-score),[21],0.196
same,glycan array binding signal (z-score),[22],0.363
same,glycan array binding signal (z-score),[23],0.075
same,glycan array binding signal (z-score),[24],0.471
same,glycan array binding signal (z-score),[25],-0.894
same,glycan array binding signal (z-score),[26],0.944
same,glycan array binding signal (z-score),[27],-0.758
